These are yes or no findings as the source states them, for the method shown. Binding seen in cells or lysates may run through a third protein. A result given as binding can be weak or reduced; the word gives no strength.
Key:
SEMA7A = biological target: T1, SEMA7A (UniProt O75326); experiment: co-IP; lysate of HEC-1-A cells transfected with a SEMA7A overexpression plasmid; 200 µL protein sample with primary antibody or normal rabbit IgG for 12 h at 4 °C, Protein A/G agarose, beads washed three times with cell-lysis buffer, analysed by WB; done in duplicate; both directions (anti-SEMA7A IP and anti-p85 IP)
T1 sequence: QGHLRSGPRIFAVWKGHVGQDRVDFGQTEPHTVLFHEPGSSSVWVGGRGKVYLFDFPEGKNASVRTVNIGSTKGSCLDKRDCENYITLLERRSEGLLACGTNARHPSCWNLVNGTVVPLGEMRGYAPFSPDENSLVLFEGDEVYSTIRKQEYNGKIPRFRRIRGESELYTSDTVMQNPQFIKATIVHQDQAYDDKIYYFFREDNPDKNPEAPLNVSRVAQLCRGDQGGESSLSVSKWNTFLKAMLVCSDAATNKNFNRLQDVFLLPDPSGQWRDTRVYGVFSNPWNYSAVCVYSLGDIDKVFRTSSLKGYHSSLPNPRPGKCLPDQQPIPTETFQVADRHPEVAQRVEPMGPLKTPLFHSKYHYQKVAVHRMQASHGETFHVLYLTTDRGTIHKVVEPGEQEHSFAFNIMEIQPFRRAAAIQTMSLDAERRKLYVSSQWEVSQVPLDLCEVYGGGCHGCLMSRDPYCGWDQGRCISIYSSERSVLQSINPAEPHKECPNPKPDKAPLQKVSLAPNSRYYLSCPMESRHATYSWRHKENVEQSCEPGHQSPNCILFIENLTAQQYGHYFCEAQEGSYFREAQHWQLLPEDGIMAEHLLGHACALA

[1] = biological target: PI3K regulatory subunit p85 (human (endogenous in HEC-1-A)); experiment: as above

“PI3K regulatory subunit p85 (human (endogenous in HEC-1-A))” was tested, and the binding (SEMA7A) was “binds”.

B1: SEMA7A (protein, UniProt O75326 45-648)
chain: QGHLRSGPRIFAVWKGHVGQDRVDFGQTEPHTVLFHEPGSSSVWVGGRGKVYLFDFPEGKNASVRTVNIGSTKGSCLDKRDCENYITLLERRSEGLLACGTNARHPSCWNLVNGTVVPLGEMRGYAPFSPDENSLVLFEGDEVYSTIRKQEYNGKIPRFRRIRGESELYTSDTVMQNPQFIKATIVHQDQAYDDKIYYFFREDNPDKNPEAPLNVSRVAQLCRGDQGGESSLSVSKWNTFLKAMLVCSDAATNKNFNRLQDVFLLPDPSGQWRDTRVYGVFSNPWNYSAVCVYSLGDIDKVFRTSSLKGYHSSLPNPRPGKCLPDQQPIPTETFQVADRHPEVAQRVEPMGPLKTPLFHSKYHYQKVAVHRMQASHGETFHVLYLTTDRGTIHKVVEPGEQEHSFAFNIMEIQPFRRAAAIQTMSLDAERRKLYVSSQWEVSQVPLDLCEVYGGGCHGCLMSRDPYCGWDQGRCISIYSSERSVLQSINPAEPHKECPNPKPDKAPLQKVSLAPNSRYYLSCPMESRHATYSWRHKENVEQSCEPGHQSPNCILFIENLTAQQYGHYFCEAQEGSYFREAQHWQLLPEDGIMAEHLLGHACALA
In the case of B1, the binding [1] is reported as “binds”.
